# Measured values reported in the supplement of paper PMC8728848.
# This is one part of the list.
# B1: CTLX (Homo sapiens), Q6UXS0 (protein)
# chain: SLCPLFWMEFKGHCYRFFPLNKTWAEADLYCSEFSVGRKSAKLASIHSWEENVFVYDLVNSCVPGIPADVWTGLHDHRQEGQFEWTDGSSYDYSYWDGSQPDDGVHADPEEEDCVQIWYRPTSALRSWNDNTCSRKFPFVCKIPSLTIH
# Assays:
# Assay in all cases: glycan array binding signal (z-score within array); higher = stronger binding
# Conditions in all cases: glycan notation: IUPAC condensed, linker removed
# [1] = molecular target: Fuc(a1-2)[Gal(a1-3)]Gal(b1-4)GlcNAc(b1-2)Man(a1-3)[Fuc(a1-2)[Gal(a1-3)]Gal(b1-4)GlcNAc(b1-2)Man(a1-6)]Man(b1-4)GlcNAc(b1-4)GlcNAc
# In short: (§1)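 The binding signal is a Z-score computed within each array. Data were drawn from 3228 arrays in the Consortium for Functional Glycomics database, restricted to those with a known protein sequence. Scores were averaged over arrays of the same protein sequence at different concentrations or buffers, and over linkers, and negative values can be taken as non-binding.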
# [2] = molecular target: Fuc(a1-2)[Gal(a1-3)]Gal(b1-4)[Fuc(a1-3)]GlcNAc
# In short: as §1
# [3] = molecular target: Fuc(a1-2)[Gal(a1-4)]Gal(b1-4)GlcNAc
# In short: as §1
# [4] = molecular target: Fuc(a1-2)[GalNAc(a1-3)]Gal
# In short: as §1
# [5] = molecular target: Fuc(a1-2)[GalNAc(a1-3)]Gal(b1-3)GlcNAc
# In short: as §1
# [6] = molecular target: Fuc(a1-2)[GalNAc(a1-3)]Gal(b1-3)GlcNAc(b1-2)Man(a1-3)[Fuc(a1-2)[GalNAc(a1-3)]Gal(b1-3)GlcNAc(b1-2)Man(a1-6)]Man(b1-4)GlcNAc(b1-4)GlcNAc
# In short: as §1
# [7] = molecular target: Fuc(a1-2)[GalNAc(a1-3)]Gal(b1-4)Glc
# In short: as §1
# [8] = molecular target: Fuc(a1-2)[GalNAc(a1-3)]Gal(b1-4)GlcNAc
# In short: as §1
# [9] = molecular target: Fuc(a1-2)[GalNAc(a1-3)]Gal(b1-4)GlcNAc(b1-2)Man(a1-3)[GalNAc(a1-3)[Fuc(a1-2)]Gal(b1-4)GlcNAc(b1-2)Man(a1-6)]Man(b1-4)GlcNAc(b1-4)GlcNAc
# In short: as §1
# [10] = molecular target: Fuc(a1-2)[GalNAc(a1-3)]Gal(b1-4)GlcNAc(b1-3)Gal(b1-4)GlcNAc
# In short: as §1
# [11] = molecular target: Fuc(a1-2)[GalNAc(a1-3)]Gal(b1-4)GlcNAc(b1-3)Gal(b1-4)GlcNAc(b1-3)Gal(b1-4)GlcNAc
# In short: as §1
# [12] = molecular target: Fuc(a1-2)[GalNAc(a1-3)]Gal(b1-4)[Fuc(a1-3)]GlcNAc
# In short: as §1
# [13] = molecular target: Fuc(a1-2)[GalNAc(a1-4)]Gal(b1-4)GlcNAc
# In short: as §1
# [14] = molecular target: Fuc(a1-2)[GalNAc(b1-3)]Gal
# In short: as §1
# Fuc(a1-3)GlcNAc = molecular target: Fuc(a1-3)GlcNAc
# In short: as §1
# [15] = molecular target: Fuc(a1-3)[Gal(b1-4)]Glc6S
# In short: as §1
# [16] = molecular target: Fuc(a1-3)[Gal(b1-4)]GlcNAc
# In short: as §1
# [17] = molecular target: Fuc(a1-3)[Gal(b1-4)]GlcNAc(b1-2)Man(a1-3)[Fuc(a1-3)[Gal(b1-4)]GlcNAc(b1-2)Man(a1-6)]Man(b1-4)GlcNAc(b1-4)GlcNAc
# In short: as §1
# [18] = molecular target: Fuc(a1-3)[Gal(b1-4)]GlcNAc(b1-2)Man(a1-6)[Gal(b1-4)GlcNAc(b1-2)Man(a1-3)]Man(b1-4)GlcNAc(b1-4)GlcNAc
# In short: as §1
# [19] = molecular target: Fuc(a1-3)[Gal(b1-4)]GlcNAc(b1-3)Gal(b1-3)[Fuc(a1-4)]GlcNAc
# In short: as §1
# [20] = molecular target: Fuc(a1-3)[Gal(b1-4)]GlcNAc(b1-4)Gal(b1-4)[Fuc(a1-3)]GlcNAc
# In short: as §1
# [21] = molecular target: Fuc(a1-3)[Gal(b1-4)]GlcNAc(b1-4)Gal(b1-4)[Fuc(a1-3)]GlcNAc(b1-4)Gal(b1-4)[Fuc(a1-3)]GlcNAc
# In short: as §1
# [22] = molecular target: Fuc(a1-3)[Gal(b1-4)]GlcNAc6S
# In short: as §1
# [23] = molecular target: Fuc(a1-3)[Gal3S(b1-4)]Glc6S
# In short: as §1
# [24] = molecular target: Fuc(a1-3)[Gal3S(b1-4)]GlcNAc
# In short: as §1
# [25] = molecular target: Fuc(a1-3)[Gal3S(b1-4)]GlcNAc6S
# In short: as §1
# [26] = molecular target: Fuc(a1-3)[GalNAc(b1-4)]GlcNAc
# In short: as §1
# [27] = molecular target: Fuc(a1-3)[Neu5Ac(a2-3)]Gal(b1-4)GlcNAc(b1-3)GalNAc
# In short: as §1
# Fuc(a1-4)GlcNAc = molecular target: Fuc(a1-4)GlcNAc
# In short: as §1
# Fuc(b1-3)GlcNAc = molecular target: Fuc(b1-3)GlcNAc
# In short: as §1
# Gal(a1-2)Gal = molecular target: Gal(a1-2)Gal
# In short: as §1
# Gal(a1-3)Gal = molecular target: Gal(a1-3)Gal
# In short: as §1
# Gal(a1-3)Gal(b1-3)GlcNAc = molecular target: Gal(a1-3)Gal(b1-3)GlcNAc
# In short: as §1
# Gal(a1-3)Gal(b1-4)Glc = molecular target: Gal(a1-3)Gal(b1-4)Glc
# In short: as §1
# Gal(a1-3)Gal(b1-4)GlcNAc = molecular target: Gal(a1-3)Gal(b1-4)GlcNAc
# In short: as §1
# [28] = molecular target: Gal(a1-3)Gal(b1-4)[Fuc(a1-3)]GlcNAc
# In short: as §1
# [29] = molecular target: Gal(a1-3)Gal(b1-4)[Fuc(a1-3)]GlcNAc(b1-2)Man(a1-3)[Gal(a1-3)Gal(b1-4)[Fuc(a1-3)]GlcNAc(b1-2)Man(a1-6)]Man(b1-4)GlcNAc(b1-4)GlcNAc
# In short: as §1
# Gal(a1-3)GalNAc = molecular target: Gal(a1-3)GalNAc
# In short: as §1
# [30] = molecular target: Gal(a1-3)[Gal(a1-4)]Gal(b1-4)GlcNAc
# In short: as §1
# Gal(a1-4)Gal(b1-4)Glc = molecular target: Gal(a1-4)Gal(b1-4)Glc
# In short: as §1
# Gal(a1-4)Gal(b1-4)GlcNAc = molecular target: Gal(a1-4)Gal(b1-4)GlcNAc
# In short: as §1
# [31] = molecular target: Gal(a1-4)Gal(b1-4)GlcNAc(b1-3)Gal(b1-4)Glc
# In short: as §1
# Gal(a1-4)GlcNAc = molecular target: Gal(a1-4)GlcNAc
# In short: as §1
# Gal(a1-6)Glc = molecular target: Gal(a1-6)Glc
# In short: as §1
# Gal(b1-2)Gal = molecular target: Gal(b1-2)Gal
# In short: as §1
binder,measurement,setting,value
B1,glycan array binding signal (z-score),[1],-0.888
same,glycan array binding signal (z-score),[2],2.81
same,glycan array binding signal (z-score),[3],0.513
same,glycan array binding signal (z-score),[4],2.58
same,glycan array binding signal (z-score),[5],1
same,glycan array binding signal (z-score),[6],-0.789
same,glycan array binding signal (z-score),[7],0.494
same,glycan array binding signal (z-score),[8],0.143
same,glycan array binding signal (z-score),[9],0.689
same,glycan array binding signal (z-score),[10],1.64
same,glycan array binding signal (z-score),[11],2.19
same,glycan array binding signal (z-score),[12],-0.551
same,glycan array binding signal (z-score),[13],-0.572
same,glycan array binding signal (z-score),[14],-0.477
same,glycan array binding signal (z-score),Fuc(a1-3)GlcNAc,-0.999
same,glycan array binding signal (z-score),[15],-0.17
same,glycan array binding signal (z-score),[16],-0.533
same,glycan array binding signal (z-score),[17],-0.821
same,glycan array binding signal (z-score),[18],-0.272
same,glycan array binding signal (z-score),[19],-0.295
same,glycan array binding signal (z-score),[20],1.06
same,glycan array binding signal (z-score),[21],-0.813
same,glycan array binding signal (z-score),[22],2.08
same,glycan array binding signal (z-score),[23],5.87
same,glycan array binding signal (z-score),[24],0.41
same,glycan array binding signal (z-score),[25],-0.164
same,glycan array binding signal (z-score),[26],1.16
same,glycan array binding signal (z-score),[27],1.89
same,glycan array binding signal (z-score),Fuc(a1-4)GlcNAc,-0.448
same,glycan array binding signal (z-score),Fuc(b1-3)GlcNAc,-0.912
same,glycan array binding signal (z-score),Gal(a1-2)Gal,0.5
same,glycan array binding signal (z-score),Gal(a1-3)Gal,0.482
same,glycan array binding signal (z-score),Gal(a1-3)Gal(b1-3)GlcNAc,0.525
same,glycan array binding signal (z-score),Gal(a1-3)Gal(b1-4)Glc,1.11
same,glycan array binding signal (z-score),Gal(a1-3)Gal(b1-4)GlcNAc,-0.489
same,glycan array binding signal (z-score),[28],-0.514
same,glycan array binding signal (z-score),[29],2.91
same,glycan array binding signal (z-score),Gal(a1-3)GalNAc,-1.04
same,glycan array binding signal (z-score),[30],-1.24
same,glycan array binding signal (z-score),Gal(a1-4)Gal(b1-4)Glc,-0.799
same,glycan array binding signal (z-score),Gal(a1-4)Gal(b1-4)GlcNAc,0.014
same,glycan array binding signal (z-score),[31],-0.109
same,glycan array binding signal (z-score),Gal(a1-4)GlcNAc,-0.679
same,glycan array binding signal (z-score),Gal(a1-6)Glc,-0.79
same,glycan array binding signal (z-score),Gal(b1-2)Gal,0.821
